From article PMC11384962
These are yes or no findings as the source states them, for the method shown. Binding seen in cells or lysates may run through a third protein. Some binding calls cover weakened binding; strength is not graded here.

The chains behind the UniProt entries cited, without tags or fusion partners.
UniProt Q16637: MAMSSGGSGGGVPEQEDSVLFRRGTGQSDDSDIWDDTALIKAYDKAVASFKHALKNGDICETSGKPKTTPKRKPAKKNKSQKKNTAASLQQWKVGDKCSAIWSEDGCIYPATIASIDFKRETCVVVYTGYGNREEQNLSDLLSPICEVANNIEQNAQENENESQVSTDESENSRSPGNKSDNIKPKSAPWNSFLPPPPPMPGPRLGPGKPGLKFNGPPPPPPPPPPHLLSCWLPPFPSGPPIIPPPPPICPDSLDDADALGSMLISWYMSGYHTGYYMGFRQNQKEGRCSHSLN
UniProt O14893: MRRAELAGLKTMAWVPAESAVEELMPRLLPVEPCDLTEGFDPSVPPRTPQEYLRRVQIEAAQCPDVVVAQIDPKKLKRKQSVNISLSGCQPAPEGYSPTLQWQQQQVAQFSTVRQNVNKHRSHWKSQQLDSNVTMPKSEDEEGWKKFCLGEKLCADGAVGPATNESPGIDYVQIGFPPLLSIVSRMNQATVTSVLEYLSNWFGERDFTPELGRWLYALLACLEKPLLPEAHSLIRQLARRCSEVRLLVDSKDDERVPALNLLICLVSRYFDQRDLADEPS

What was measured:
[1] = target: survival of motor neuron (SMN) protein, untagged (human (endogenous in BJ hiPSCs)) (UniProt Q16637); experiment: co-IP; BJ WT and BJ SMN:Clover #23 hiPSC lysates, 1 mg protein per reaction; GFP-Trap DynaBeads, or anti-SMN antibody (anti-IgG mouse as control) with Protein A/G magnetic beads; overnight at 4°C; lysis buffer 25mM Tris HCl pH 7.4, 62.5mM NaCl, 2% NP-40, 1mM EDTA; western blot
[2] = target: SMN:Clover (survival of motor neuron protein with a C-terminal Clover reporter, endogenously tagged) (human (endogenous in BJ hiPSCs)) (UniProt Q16637); experiment: as above

In the case of gemin2 (from UniProt O14893 1-280), the binding [1] is reported as “binds” and the binding [2] is reported as “binds”.
